Source: patent US20220259306A1
Residue numbers refer to the chain shown, from its start. Results are given in words; binding and its absence hold for the method and conditions named. Binding calls can cover weak binding; strength is not graded here.

B1: Mpb416 (antibody, V domains shown)
VH: QVQLQQSVAELVRPGASVKLSCTASGFNIQNTYIHWVKQRPEQGLEWIGKIDPANGDTKYAPTFQGKATITADTSSNTAYLQLSSLTPEDTAIYYCARYRDYLFYYALGYWGQGTSVTVSS
VL: DIVMTQSAPSVPVTPGESVSISCRSSKSLLHSNGNTYLYWFLQRPGQSPQLLIYRMSNLASGVPDRFSGSGSGTAFTLRISRVEAEDVGVYYCMQHLEYPYTFGGGTKLEIK
B2: Mab031 (antibody, V domains shown)
VH: EVQLQQSVAELVRPGASVRLSCTGSGFNIQNTYIHWVKQRPEQGLEWIGRIDPANGDTKYAPKFQGKATITADTSSNTAYLQLSSLTSEDTAIYYCTRYGNYLYYYSLDYWGQGTSVTVSS
VL: B1 VL with S7A, V88M
B3: Mab032 (antibody, V domains shown)
VH: B2 VH with Q30E, I34M, V37L, N55D, K59Q, A72T, T97A, Y104F, L108M
VL: B1 VL with S7A, G73A, V90I
B4: Mab033 (antibody, V domains shown)
VH: EVQLQQSVAEFVRPGASVRLSCTASGFNIENTYIHWLKQRPEQGLEWIGRIDPANGDTQYDPKFQGKATLTAATSSNTAYLQLSGLTSEDTAIYYCTRYGDYLFYYSLKYWGQGTSVTVSS
VL: B1 VL with S7A, P12S, Y99S
B5: M15 (antibody, V domains shown)
VH: B1 VH with G56A
VL: B1 VL with G34A
B6: M15-5 (antibody, V domains shown)
VH: QVQLVQSGAEVKKPGASVKVSCKASGFNIQNTYIHWVKQAPGQGLEWIGKIDPANADTKYAPTFQGRATITADTSTNTAYLELSSLRSEDTAVYYCARYRDYLFYYALGYWGQGTTVTVSS
VL: DIVMTQSPLSLPVTPGEPASISCRSSKSLLHSNANTYLYWYLQKPGQSPQLLIYRMSNLASGVPDRFSGSGSGTDFTLKISRVEAEDVGVYYCMQHLEYPYTFGQGTKLEIK

target: human NKG2A/CD94 on the cell surface (CHOk1-hNKG2A/CD94 stable cell line) (human); assay: FACS blocking assay: HLA-E-PE binding to CHOk1-hNKG2A/CD94 cells in the presence of the antibody

binding | Binder
binds | B1
binds | B2
binds | B3
binds | B4

target: human NKG2A/CD94 on the cell surface (CHOk1-hNKG2A/CD94 stable cell line) (human); assay: FACS on CHOK1-hNKG2A/CD94 cells

binding | Binder
binds | B5
binds | B6

target: human NKG2A/CD94 on the cell surface (CHOk1-hNKG2A/CD94 stable cell line) (human); assay: FACS on CHOK1-hNKG2A/CD94 cells, Alexa 488 secondary antibody

binding | Binder
binds | B1
binds | B2
binds | B3
binds | B4

target: human NKG2A/CD94 on the cell surface (CHOk1-hNKG2A/CD94 stable cell line) (human); assay: FACS blocking assay: HLA-E binding to NKG2A/CD94 cells in the presence of the antibody

binding | Binder
binds | B5
binds | B6
